Data as given in PubChem BioAssay AID1259327 (Drosophila RNAi Screening Center, 2017)

Aim: 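Knock-downs altering cellular ATP with no metal added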
Cell system: Drosophila S2R+ cells
Knock-down reagent: long dsRNA against Drosophila genes
Timing: 5 days (water added on day 4, read one day later)
Challenge: water added as vehicle, no metal, one day before read-out
Measured: 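Total ATP measured by luciferase light, scaled to plate mean, duplicates averaged, then z-scored across plates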
Reading the numbers: ATP z-score: higher = more total ATP than typical wells; ATP luminescence: higher = more total ATP
Rule for the call: 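Called active when the ATP z-score exceeds 1.5 or falls below -1.5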
Meaning of the calls: active = hit: ATP up or down; inactive = no clear ATP change
In all, the deposit lists about 3,100 reagents; below is an unselected part. 378 of all reagents (12%) were called active. 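Hits include both directions; z-score sign shows ATP rise or fall; raw luminescence values are not plate-normalised.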 Not given: the amount of reagent.

gene knocked down	amplicon	ATP z-score, duplicate mean	ATP luminescence, replicate 1 (RLU)	ATP luminescence, replicate 2 (RLU)	outcome
Atet	DRSC00263	0.00936	7.46e5	7.09e5	inactive
Atet	DRSC39890	1.07	6.75e5	6.77e5	inactive
CG1090	DRSC21604	-1.18	5.14e5	4.45e5	inactive
Indy	DRSC10393	0.71	8.28e5	7.85e5	inactive
ds	DRSC00815	-0.43	6.58e5	6.64e5	inactive
Tim17b2	DRSC28544	-0.294	8.05e5	7.71e5	inactive
COX4L	DRSC04841	-0.184	6.98e5	7.15e5	inactive
COX4L	DRSC39670	0.235	5.09e5	4.53e5	inactive
Or59a	DRSC04631	-0.309	6.54e5	7.32e5	inactive
Or59a	DRSC39825	1.44	5.56e5	6.05e5	inactive
CG31792	DRSC02604	0.0701	7.40e5	7.28e5	inactive
CG31792	DRSC39634	-0.506	3.64e5	5.00e5	inactive
CG44153	DRSC02228	0.701	5.03e5	5.55e5	inactive
CG44153	DRSC02902	-0.924	6.44e5	6.13e5	inactive
CG44153	DRSC02903	-0.139	9.00e5	8.56e5	inactive
PK2-R1	DRSC16447	-0.114	2.98e5	7.39e5	inactive
PK2-R1	DRSC24363	-0.429	7.59e5	8.36e5	inactive
Glut1	DRSC07927	-0.481	6.45e5	7.39e5	inactive
Glut1	DRSC08662	0.149	6.82e5	8.14e5	inactive
fng	DRSC11887	0.353	7.68e5	7.70e5	inactive
fng	DRSC21935	-1.01	4.93e5	4.94e5	inactive
SppL	DRSC15228	0.291	3.05e5	8.12e5	inactive
CG9702	DRSC16540	2.15	8.95e5	7.48e5	active
Hk	DRSC24985	-0.895	7.36e5	7.42e5	inactive
Hk	DRSC39129	-1.39	4.21e5	5.04e5	inactive
Ir48c	DRSC06154	-0.52	6.09e5	5.36e5	inactive
Ir48c	DRSC39434	-1.03	4.34e5	3.39e5	inactive
Culd	DRSC10262	-0.0758	7.08e5	7.39e5	inactive
Culd	DRSC39624	-1.3	3.61e5	3.93e5	inactive
